Reference: PubChem BioAssay AID248 (DTP/NCI, 2004)
The list does not hold the whole screen: it is rich in T/C values a quarter to a half above the control, in often repeated tests (any T/C) and in doses without a T/C. Other doses and runs of a compound stand elsewhere. T/C: endpoint of the treated group in % of that of the vehicle group. Some entries give survivors of the animals treated and no T/C: the source files T/C as zero there, which appears to mark a toxic dose or a test without result, not a measured value. Some doses without a T/C left all or most animals alive at the check, yet need not have been tolerated: the source hardly ever lists a survival T/C far under the control, and the zero likely stands for such cases as well. Survivors were counted at the toxicity check, usually on the fifth day, unless a day is given; later deaths do not show. Schedule codes are those of the source, taken here to give the interval after Q, in days (D) or hours (H), and the number of doses after X. Some entries were tested several times; the values are given in rising order. Some schedules carry Z or #; the key to these is not given. Where survival is the endpoint, this PubChem deposit counts one and a half times the control or more as active, and values a quarter to a half above the control carry no call in these data; other NCI protocols may use other cut-offs. Some T/C values are followed by the survivors on the day toxicity was checked, most often the fifth; where none is given, no animal had died by that day.

Test system: L1210 leukemia ip in BDF1 mice, survival T/C
Experiment: NCI In Vivo Anticancer Drug Screen. Data for tumor model L1210 Leukemia (intraperitoneal) in B6D2F1 (BDF1) mice
Settings: higher T/C = longer survival
[1] = T/C endpoint: mean survival time, dose: 200.0 mg/kg/injection, schedule: Q04DX002 (ip), vehicle: saline
[2] = T/C endpoint: mean survival time, dose: 400.0 mg/kg/injection, schedule: Q04DX002 (ip), vehicle: saline
[3] = T/C endpoint: mean survival time, dose: 400.0 mg/kg/injection, schedule: Q04DX003 (ip), vehicle: saline with Tween-80
[4] = T/C endpoint: mean survival time, dose: 300.0 mg/kg/injection, schedule: Q01DX001 (ip), vehicle: saline
[5] = T/C endpoint: mean survival time, dose: 400.0 mg/kg/injection, schedule: Q04DX003 (ip), vehicle: saline
[6] = T/C endpoint: mean survival time, dose: 100.0 mg/kg/injection, schedule: Q01DX009 (ip), vehicle: Klucel (hydroxypropylcellulose) (HPC)
[7] = T/C endpoint: mean survival time, dose: 400.0 mg/kg/injection, schedule: Q01DX009 (ip), vehicle: Klucel (hydroxypropylcellulose) (HPC)
[8] = T/C endpoint: mean survival time, dose: 400.0 mg/kg/injection, schedule: Q01DX001 (ip), vehicle: Klucel (hydroxypropylcellulose) (HPC)

In the case of `Clc1cc[c]([Sn]([Cl])([c]2ccc(Cl)cc2)[c]2ccc(Cl)cc2)cc1`, the survivor count (T/C endpoint: mean survival time, dose: 6.25 mg/kg/injection, schedule: Q01DX009 (ip), vehicle: saline) is reported as 4 of 6 and 5 of 6, the survivor count (T/C endpoint: mean survival time, dose: 12.5 mg/kg/injection, schedule: Q01DX009 (ip), vehicle: saline) is reported as 1 of 6 and the survivor count (T/C endpoint: mean survival time, dose: 25.0 mg/kg/injection, schedule: Q01DX009 (ip), vehicle: saline) is reported as 0 of 6. The survivor count (T/C endpoint: mean survival time, dose: 25.0 mg/kg/injection, schedule: Q04DX002 (ip), vehicle: saline) was 3 of 3, the survivor count (T/C endpoint: mean survival time, dose: 50.0 mg/kg/injection, schedule: Q04DX002 (ip), vehicle: saline) was 2 of 3 and the survivor count (T/C endpoint: mean survival time, dose: 100.0 mg/kg/injection, schedule: Q04DX002 (ip), vehicle: saline) was 1 of 3 and 2 of 3. The survivor count [1] was 0 of 3 and the survivor count [2] was 0 of 3.
In the case of `O=C(O)C1C2OC(C(Br)C2Br)C1C(=O)O` (configuration not stated), the survivor count [3] is reported as 4 of 6.
`NP(=O)(N1CC1)N1CC1` was tested, and the T/C (T/C endpoint: mean survival time, dose: 2.0 mg/kg/injection, schedule: Q01DX015 (ip), vehicle: carboxymethylcellulose (CMC)) was 140 % of control, the T/C (T/C endpoint: mean survival time, dose: 5.0 mg/kg/injection, schedule: Q01DX015 (ip), vehicle: carboxymethylcellulose (CMC)) was 130 % of control and the T/C (T/C endpoint: mean survival time, dose: 8.0 mg/kg/injection, schedule: Q01DX001 (ip), vehicle: carboxymethylcellulose (CMC)) was 131 % of control. For the same compound, the survivor count (T/C endpoint: mean survival time, dose: 10.0 mg/kg/injection, schedule: Q01DX015 (ip), vehicle: carboxymethylcellulose (CMC)) was 6 of 6, the survivor count (T/C endpoint: mean survival time, dose: 60.0 mg/kg/injection, schedule: Q01DX001 (ip), vehicle: carboxymethylcellulose (CMC)) was 0 of 4 and the survivor count (T/C endpoint: mean survival time, dose: 120.0 mg/kg/injection, schedule: Q01DX001 (ip), vehicle: carboxymethylcellulose (CMC)) was 0 of 4.
`OC[P+](CO)(CO)CO` was tested, and the survivor count [1] was 0 of 3 and the survivor count [2] was 0 of 3.
`c1ccc(-c2ccc([Si](c3ccc(-c4ccccc4)cc3)(c3ccc(-c4ccccc4)cc3)c3ccc(-c4ccccc4)cc3)cc2)cc1` was tested, and the survivor count (T/C endpoint: mean survival time, dose: 100.0 mg/kg/injection, schedule: Q04DX003 (ip), vehicle: gum acacia) was 6 of 6, the survivor count (T/C endpoint: mean survival time, dose: 200.0 mg/kg/injection, schedule: Q04DX003 (ip), vehicle: gum acacia) was 6 of 6 and the survivor count (T/C endpoint: mean survival time, dose: 400.0 mg/kg/injection, schedule: Q04DX003 (ip), vehicle: gum acacia) was 6 of 6.
In the case of `CN1CCC2CCC(C1)N2C` (configuration not stated), the survivor count [4] is reported as 1 of 6.
For `CCOC(=O)/C(C#N)=N/O`, the survivor count (T/C endpoint: mean survival time, dose: 75.0 mg/kg/injection, schedule: Q01DX009 (ip), vehicle: saline) was 3 of 6.
`ClC1=C(Cl)C2(Cl)C(Cl)CC1(Cl)C2(Cl)Cl` (configuration not stated) was tested, and the survivor count [5] was 6 of 6.
With `O=C(N/N=C(\C=N\NC(=O)c1ccccc1)CC(O)CO)c1ccccc1` (configuration not stated) the survivor count [3] was 4 of 6.
`O=C1c2cccc3c(Br)ccc(c23)C(=O)N1CCCN1CCOCC1` was tested, and the survivor count [6] was 3 of 6, the survivor count (T/C endpoint: mean survival time, dose: 200.0 mg/kg/injection, schedule: Q01DX009 (ip), vehicle: Klucel (hydroxypropylcellulose) (HPC)) was 4 of 6 and the survivor count [7] was 0 of 6.
With `N#Cc1cnc2nc(N)nc(N)c2c1` the survivor count (T/C endpoint: mean survival time, dose: 100.0 mg/kg/injection, schedule: Q01DX009 (ip), vehicle: saline) was 6 of 6, the survivor count (T/C endpoint: mean survival time, dose: 400.0 mg/kg/injection, schedule: Q01DX009 (ip), vehicle: saline) was 2 of 6 and 4 of 6 and the survivor count [5] was 2 of 6.
For `CCCN(CCC)CCCCO`, the survivor count [3] was 1 of 6.
`Cc1nc2c(=O)n(C)c(=O)n(C)c2n1C` was tested, and the survivor count [3] was 4 of 6.
With `CC(C)(C)N=O` the survivor count [8] was 0 of 6.
`Cc1cc(C)c(S(=O)(=O)O)cc1C` was tested, and the survivor count (T/C endpoint: mean survival time, dose: 200.0 mg/kg/injection, schedule: Q04DX003 (ip), vehicle: saline) was 6 of 6 and the survivor count [5] was 0 of 6.
In the case of `COC(COC(N)=O)C1=C(N2CC2)C(=O)C(C)=C(N2CC2)C1=O` (configuration not stated), the T/C (T/C endpoint: mean survival time, dose: 0.12 mg/kg/injection, schedule: Q01DX009 (ip), vehicle: saline) is reported as 137 % of control, the T/C (T/C endpoint: mean survival time, dose: 0.25 mg/kg/injection, schedule: Q01DX009 (ip), vehicle: saline) is reported as 146 % of control and the T/C (T/C endpoint: mean survival time, dose: 0.5 mg/kg/injection, schedule: Q01DX001 (ip), vehicle: saline with Tween-80) is reported as 145 % of control. For the same compound, the T/C (T/C endpoint: mean survival time, dose: 0.5 mg/kg/injection, schedule: Q01DX001 (ip), vehicle: saline) was 140 % of control, the survivor count (T/C endpoint: mean survival time, dose: 0.5 mg/kg/injection, schedule: Q01DX009 (ip), vehicle: Klucel (hydroxypropylcellulose) (HPC)) was 3 of 10 and the survivor count (T/C endpoint: mean survival time, dose: 1.0 mg/kg/injection, schedule: Q01DX009 (ip), vehicle: Klucel (hydroxypropylcellulose) (HPC)) was 5 of 10. For the same compound, the T/C (T/C endpoint: mean survival time, dose: 1.0 mg/kg/injection, schedule: Q04DX003 (ip), vehicle: Klucel (hydroxypropylcellulose) (HPC)) was 145 % of control, the survivor count (T/C endpoint: mean survival time, dose: 2.0 mg/kg/injection, schedule: Q01DX009 (ip), vehicle: saline) was 9 of 10 and the survivor count (T/C endpoint: mean survival time, dose: 2.0 mg/kg/injection, schedule: Q01DX Z (ip), vehicle: saline) was 6 of 6. For the same compound, the survivor count (T/C endpoint: mean survival time, dose: 4.0 mg/kg/injection, schedule: Q01DX001 (ip), vehicle: saline) was 5 of 10, the survivor count (T/C endpoint: mean survival time, dose: 4.0 mg/kg/injection, schedule: Q01DX009 (ip), vehicle: Klucel (hydroxypropylcellulose) (HPC)) was 10 of 10 and the survivor count (T/C endpoint: mean survival time, dose: 4.0 mg/kg/injection, schedule: Q04DX003 (ip), vehicle: Klucel (hydroxypropylcellulose) (HPC)) was 5 of 10. For the same compound, the survivor count (T/C endpoint: mean survival time, dose: 4.0 mg/kg/injection, schedule: Q04DX003 (ip), vehicle: saline) was 7 of 10, the survivor count (T/C endpoint: mean survival time, dose: 4.0 mg/kg/injection, schedule: Q08DX002 (ip), vehicle: saline) was 8 of 10 and the survivor count (T/C endpoint: mean survival time, dose: 8.0 mg/kg/injection, schedule: Q01DX001 (ip), vehicle: saline with Tween-80) was 10 of 10. The survivor count (T/C endpoint: mean survival time, dose: 8.0 mg/kg/injection, schedule: Q01DX001 (ip), vehicle: saline) was 9 of 10, the survivor count (T/C endpoint: mean survival time, dose: 8.0 mg/kg/injection, schedule: Q04DX003 (ip), vehicle: Klucel (hydroxypropylcellulose) (HPC)) was 8 of 10 and the survivor count (T/C endpoint: mean survival time, dose: 8.0 mg/kg/injection, schedule: Q04DX003 (ip), vehicle: saline) was 10 of 10. The survivor count (T/C endpoint: mean survival time, dose: 8.0 mg/kg/injection, schedule: Q08DX002 (ip), vehicle: saline) was 10 of 10, the T/C (T/C endpoint: median survival time, dose: 4.0 mg/kg/injection, schedule: Q01DX001 (ip), vehicle: saline, evaluated on day 8) was 145 % of control and the T/C (T/C endpoint: median survival time, dose: 4.0 mg/kg/injection, schedule: Q01DX001 (ip), vehicle: saline, evaluated on day 30) was 145 % of control [7 of 8 alive].
With `CC(=O)Oc1ccc2c3c(ccc2c1)CCCC3` the survivor count [6] was 2 of 3.
`C=C(Br)CNC(=O)NCCCl` was tested, and the survivor count [8] was 0 of 6.
In the case of `CC1(NCCOC(=O)c2ccc(N)cc2)CCCCC1`, the survivor count [4] is reported as 1 of 6.
For `CC(/C=C/C(O)=C1/C(=O)CNC1=O)=C\[C@@H](C)[C@H]1O[C@@]2(C)O[C@H](C(=O)[C@@H]3O[C@@]32C)[C@@H]1C`, the survivor count (T/C endpoint: mean survival time, dose: 200.0 mg/kg/injection, schedule: Q04DX003 (ip), vehicle: acetone) was 6 of 6 and the survivor count (T/C endpoint: mean survival time, dose: 400.0 mg/kg/injection, schedule: Q04DX003 (ip), vehicle: acetone) was 6 of 6.
`c1ccc(CCNc2ncnc3[nH]ncc23)cc1` was tested, and the survivor count (T/C endpoint: mean survival time, dose: 100.0 mg/kg/injection, schedule: Q01DX015 (ip), vehicle: carboxymethylcellulose (CMC)) was 3 of 6.
`Nc1cnnc(N)c1Cl` was tested, and the survivor count (T/C endpoint: mean survival time, dose: 80.0 mg/kg/injection, schedule: Q01DX001 (ip), vehicle: saline) was 0 of 4, the survivor count (T/C endpoint: mean survival time, dose: 100.0 mg/kg/injection, schedule: Q01DX001 (ip), vehicle: saline) was 0 of 6 and the survivor count (T/C endpoint: mean survival time, dose: 200.0 mg/kg/injection, schedule: Q01DX001 (ip), vehicle: saline) was 0 of 6. The survivor count (T/C endpoint: mean survival time, dose: 400.0 mg/kg/injection, schedule: Q01DX001 (ip), vehicle: saline) was 0 of 6.
With `NC1=NCCN1c1cccc2ccccc12` the survivor count (T/C endpoint: mean survival time, dose: 300.0 mg/kg/injection, schedule: Q01DX001 (ip), vehicle: carboxymethylcellulose (CMC)) was 3 of 6.
With `CCCCCCCCCCCC(C)NCc1ccccc1` (configuration not stated) the survivor count (T/C endpoint: mean survival time, dose: 50.0 mg/kg/injection, schedule: Q04DX003 (ip), vehicle: saline) was 1 of 6, the survivor count (T/C endpoint: mean survival time, dose: 55.0 mg/kg/injection, schedule: Q01DX009 (ip), vehicle: acetone) was 1 of 6 and the survivor count (T/C endpoint: mean survival time, dose: 100.0 mg/kg/injection, schedule: Q04DX003 (ip), vehicle: saline) was 0 of 6.
With `CCO/C=C1\SC(=S)N(c2ccccc2C)C1=O` the survivor count [6] was 3 of 6 and the survivor count [7] was 0 of 6.
